Laboratory results published in PubChem BioAssay AID540256 (National Center for Advancing Translational Sciences (NCATS), 2011).
In all, about 300,000 compounds went through this assay and about 3,700 (1.2%) were called active. This list was built around the results that the source calls inconclusive (neither active nor inactive); the mix of calls is not that of the screen. The call rests on the fitted dose curve; tested in HEK293 cells. Potencies of inconclusive entries are doubtful fits and often do not repeat.

Experiment: qHTS for Inhibitors of binding or entry into cells for Lassa Virus; further: nearly all actives have a fitted effect of over 50% in size
Details: Lassa virus pseudotype entry inhibition, cell reporter; activity change, negative = inhibition: at 37.9 µM (top of the series) unless noted
On the % scale 0 is the no-effect control and ±100 the full control effect; potency means the concentration at half of the fitted maximal effect.

Structure (SMILES) | activity change, negative = inhibition | Potency
COc1ccc(C(=O)Oc2cc(-c3ccc4c(c3)OCO4)cc(=O)c3c(C)oc(C)c23)cc1 | inactive: 9.53% [at 46.1 µM] | 
Cc1cc(C(=O)N/N=C/c2cc([N+](=O)[O-])ccc2O)c2ccccc2n1 |  | inconclusive: 14.1 µM [inhibitor, partial curve, poor fit]
O=C(CSc1nc2cc(Cl)ccc2c(=O)n1Cc1ccco1)Nc1ccc(S(=O)(=O)N2CCOCC2)cc1 |  | inactive
Cc1cccc(NC(=O)CSc2nc(=O)n(Cc3ccccn3)c3c2CCC3)c1C | inactive: -17.5% [at 46.1 µM] | 
CC(C)c1ccc(C(=O)CN2C(=O)NC3(CCc4ccccc43)C2=O)cc1 (stereo not given) | inactive: -24.2% | 
O=C1CSC(c2ccccc2)N1Nc1nc(N2CCOCC2)nc(N2CCOCC2)n1 (stereo not given) |  | inconclusive: 11.2 µM [inhibitor, partial curve]
COc1ccc(-c2ccc(NS(=O)(=O)c3cccc(Cl)c3)cc2)nn1 | inactive: 3.72% [at 46.1 µM] | 
COc1cccc(CNC(=O)COC(=O)c2cccc(S(=O)(=O)N3CCCC3)c2)c1 |  | inconclusive: 35.5 µM [activator, single point]
CCCCC(=O)Oc1c(S(=O)(=O)c2ccc(C)cc2)c(C)nn1C(C)(C)C |  | inconclusive: 5.01 µM [inhibitor, full curve, poor fit]
CC(C)CC(=O)NCc1nc2cccnc2n1Cc1ccccc1 |  | inconclusive: 7.08 µM [activator, partial curve]
O=C(O)Cn1c(=O)cnc2ccccc21 | inactive: 10.7% | 
O=C(O)CCC(=O)NC(c1ccccc1)c1ccccc1 | inactive: 9.81% | 
Cc1cc(C(=O)CCl)c(C)n1-c1cccc(S(=O)(=O)N2CCOCC2)c1 | inactive: -12% | 
Cc1ccc2[nH]c3c(c2c1)CN(C(=O)CN1CCN(c2cccc(C)c2C)CC1)CC3 |  | inconclusive: 2.51 µM [inhibitor, full curve, poor fit]
CC1CCCCC12NC(=O)N(CC(=O)NC(=O)Nc1ccc3c(c1)OCCO3)C2=O (stereo not given) |  | inconclusive: 35.5 µM [inhibitor, single point]
O=C1CCCN2N=C(SCC(=O)Nc3ccccc3C(F)(F)F)SC2=N1 | inactive: 0.404% | 
O=C(Nc1cccc2ccccc12)C1CCN(C(=O)Cc2ccccc2)CC1 | inactive: 5.59% | 
Cc1c(NC(=O)c2ccc(Cl)c([N+](=O)[O-])c2)cccc1-n1cnnn1 |  | inconclusive: 31.6 µM [inhibitor, partial curve, poor fit]
CN(C(=O)COC(=O)c1cccnc1Cl)C1CCCCC1 | inactive: 22% | 
O=[N+]([O-])c1ncn(Cc2c(Cl)cccc2Cl)n1 |  | inconclusive: 29.1 µM [inhibitor, single point]
Cc1c(C=O)c(C=O)c(C)n1Cc1ccccc1 |  | inconclusive: 7.08 µM [inhibitor, partial curve, poor fit]
COC(=O)c1cccnc1N1CCN(c2ccccc2F)CC1 | inactive: 2.9% | 
COc1ccccc1NC(=O)NCc1ccco1 |  | inconclusive: 35.5 µM [inhibitor, single point]
c1ccc(C2=Nc3c(ccc4ccccc34)C(c3ccncc3)=NN2)cc1 |  | inconclusive: 8.91 µM [inhibitor, partial curve, poor fit]

Structure (SMILES) | activity change, negative = inhibition | Potency
O=C(Nc1nc(-c2ccc(S(=O)(=O)N3CCCC3)cc2)cs1)c1ccco1 | inactive: -20.4% | 
COc1cc(C(=O)O/N=C(\N)c2ccncc2)cc(OC)c1OC | inactive: -23.6% | 
CCc1ccc(NC(=O)C(C)OC(=O)Cc2cc(OC)c(OC)c(OC)c2)cc1 (stereo not given) |  | inconclusive: 12.6 µM [activator, partial curve, poor fit]
COc1cccc(OC)c1C(=O)Nc1nnc(C)s1 | inactive: 12.6% [at 46.1 µM] | 
S=C(c1ccc(-c2ccccc2Cl)o1)N1CCCCC1 |  | inconclusive: 6.31 µM [activator, single point]
O=C(CSc1nnc(-c2ccc(F)cc2)c2ccccc12)Nc1c(F)cccc1F |  | inconclusive: 29.1 µM [inhibitor, single point]
Clc1ccc(OCc2nc(-c3ccncc3)no2)c(Cl)c1 |  | inconclusive: 3.26 µM [activator, partial curve]
O=C(NC(=S)Nc1cccnc1Cl)c1ccc(Cl)cc1 |  | inconclusive: 11.2 µM [inhibitor, single point]
Cc1nc(C)c(C(=O)C2=C(O)C(=O)N(CCCn3ccnc3)C2c2ccc(Cl)cc2)s1 (stereo not given) | inactive: 6.18% | 
CN1CCN(c2nc(-c3cccnc3)nc3scc(-c4ccccc4)c23)CC1 | inactive: 1.8% | 
CC(=O)/C(=N/Nc1ccc(Br)cc1)N1CCCc2ccccc21 |  | inconclusive: 0.794 µM [inhibitor, full curve, poor fit]
O=C(Nc1ccc(N2CCOCC2)c(Cl)c1)c1cc2ccccc2o1 |  | inconclusive: 35.5 µM [inhibitor, single point]
COc1ccc(C2CC(c3ccc4ccccc4c3)=NN2C(=O)COC(=O)C2CCC(=O)N2)cc1 (stereo not given) |  | inconclusive: 35.5 µM [inhibitor, single point]
O=C(CN(Cc1ccccc1)S(=O)(=O)c1ccc2c(c1)OCCO2)N/N=C/c1ccc(F)cc1 |  | inconclusive: 23.1 µM [inhibitor, partial curve, poor fit]
Cc1cnc(NC(=O)c2cncc(Br)c2)s1 |  | inconclusive: 7.08 µM [inhibitor, partial curve, poor fit]
CCOC(=O)c1ccc(NC(=O)CSc2ccc(-c3sc(C)nc3C)nn2)cc1 |  | inconclusive: 17.8 µM [activator, single point]
Cc1nn(Cc2cccc(C(=O)NC34CC5CC(CC(C5)C3)C4)c2)c(C)c1Br |  | inconclusive: 16.4 µM [inhibitor, single point]
C=CCOC(=O)N[C@H](C[N+](=O)[O-])c1ccccc1 |  | inconclusive: 0.188 µM [inhibitor, full curve, poor fit]
O=C(Nc1cccc(C(=O)O)c1)/C(=C\c1ccc2c(c1)OCO2)NC(=O)c1ccccc1 | inactive: 14% [at 46.1 µM] | 
CCc1ccc2oc(=O)cc(CN3CCCCC3)c2c1 | inactive: 17.3% [at 46.1 µM] | 
CCCCN(CC)CCNC(=O)c1cn(CCOC)c(=O)c2c1c1ccccc1n2C |  | inconclusive: 15.8 µM [inhibitor, single point]
O=C1CN=C(c2cccc(Br)c2)c2cc(Br)ccc2N1 |  | inconclusive: 31.6 µM [inhibitor, single point]
COc1ccccc1-n1c([S-])c(C(=O)Nc2ccccc2C(F)(F)F)[n+]2ccc(C(=O)NCCO)cc12 |  | inconclusive: 7.08 µM [inhibitor, full curve, poor fit]
COc1ccc(C(=O)NCCCc2nc3ccccc3n2Cc2cc(C)ccc2C)cc1OC |  | inconclusive: 29.1 µM [inhibitor, single point]

Structure (SMILES) | activity change, negative = inhibition | Potency
Cc1ccc(S(=O)(=O)N(C)Cc2ccc(C(=O)NN=C(CC(C)C)CC(C)C)cc2)cc1 |  | inconclusive: 35.5 µM [inhibitor, single point]
FC(F)(F)c1ccccc1N/N=C/c1cccnc1 |  | inconclusive: 15.8 µM [inhibitor, partial curve, poor fit]
O=C(CSc1nncn1-c1ccccc1)Nc1c(F)cccc1F | inactive: 1.74% | 
CCOC(=O)c1c(C)[nH]c(C)c1C(=O)CSc1nc2ccccc2c(=O)n1-c1ccccc1C |  | inconclusive: 14.1 µM [inhibitor, partial curve, poor fit]
COC1CCN(C(=O)c2ccc(OC3CCN(Cc4ccccn4)CC3)cc2)CC1 |  | inconclusive: 0.708 µM [inhibitor, single point]
O=C(NCCSc1ccccn1)c1ccc(Cl)cc1Cl | inactive: -13.5% | 
O=C(O)C1C(=O)NCC1c1ccccc1 (stereo not given) |  | inconclusive: 4.47 µM [activator, partial curve, poor fit]
Cc1ccccc1/C=C1\OC(=O)c2ccccc21 | inactive: -5.86% | 
O=C(Nc1ccccc1)c1ccc(NC2CCCCC2)c(S(=O)(=O)N2CCOCC2)c1 |  | inconclusive: 9.2 µM [inhibitor, partial curve]
COC(=O)c1ccc(C(=O)Nc2ccc(C(C)C)cc2N)cc1 | inactive: -25.4% | 
COC(=O)c1cn(N(C)c2ncc(C(F)(F)F)cc2Cl)c(=O)c2ccccc12 |  | inconclusive: 20 µM [inhibitor, single point]
NC(=S)NNC(=O)Nc1cccc(Cl)c1 | inactive: 0.25% | 
Cc1nc2ccn(Cc3cccs3)c(=O)c2cc1C(=O)NCc1ccccc1 |  | inconclusive: 8.91 µM [inhibitor, single point]
COc1ccc(NN=Nc2ccc([N+](=O)[O-])cc2)cc1 |  | inconclusive: 5.62 µM [activator, single point]
NC(=O)C(c1ccc(Cl)cc1)c1ccc(Sc2ccc(Cl)cc2)nn1 (stereo not given) |  | inconclusive: 31.6 µM [inhibitor, single point]
COc1ccc(C2C3C(=O)N(Cc4ccccc4)C(=O)C3ON2c2ccccc2)c(OC)c1OC (stereo not given) |  | active: 5.62 µM
CCCCN1C(=O)c2ccc(C(=O)Nc3cccc(C)c3C)cc2C1=O | inactive: 12.6% | 
Cc1occc1C(=O)N/N=C/c1ccc2c(c1)OCO2 |  | inconclusive: 11.2 µM [inhibitor, single point]
CCN(CC)CCN(C(=O)c1ccc(CN2CCCCC2)o1)C(C(=O)NC1CCCCC1)c1ccc(F)cc1 (stereo not given) | inactive: -0.0981% [at 46.1 µM] | 
Cc1cc(C)cc(C(=O)N(CCc2ccccc2)C2CC3CCC(C2)N3C)c1 (stereo not given) |  | inconclusive: 3.98 µM [inhibitor, partial curve]
COc1ccc(NC(=O)CSc2oc(-c3cccs3)nc2S(=O)(=O)c2ccc(Br)cc2)c(OC)c1 | inactive: -1.3% [at 46.1 µM] | 
COc1ccc(/C=N\NC(=O)c2cc(OCC(F)(F)F)ccc2OCC(F)(F)F)cc1 |  | inconclusive: 4.47 µM [inhibitor, full curve]

Part of the list above, with each value named.
O=C(CSc1nc2cc(Cl)ccc2c(=O)n1Cc1ccco1)Nc1ccc(S(=O)(=O)N2CCOCC2)cc1
  Potency: inactive
COc1cccc(OC)c1C(=O)Nc1nnc(C)s1
  activity change, negative = inhibition: inactive: 12.6% [at 46.1 µM]
O=C1CN=C(c2cccc(Br)c2)c2cc(Br)ccc2N1
  Potency: inconclusive: 31.6 µM [inhibitor, single point]
FC(F)(F)c1ccccc1N/N=C/c1cccnc1
  Potency: inconclusive: 15.8 µM [inhibitor, partial curve, poor fit]
